# Literature values as cited in patent publication US8268893B2, “Use of dapsone as a neuroprotector in cerebral infarction” (Universidad Autonoma Metropolitana, priority 2003, dated 2012).
# At least one structure is not confirmed: it was looked up by name or label, or the drawing left a doubt.
# Tested on: patients with brain stroke
# Conditions: three months after administration; placebo patients improved 20%; cited from earlier work
structure (smiles),measurement,value
C[N+](C)(C)CCOP(=O)(O)OP(=O)([O-])OC[C@H]1O[C@@H](n2ccc(N)nc2=O)[C@H](O)[C@@H]1O [Citicoline],improvement in average in patients with brain stroke,25%
